From publication PMC7019159
Results are given in words; binding and its absence hold for the method and conditions named. In cells and extracts the contact can be indirect. Some binding calls cover weakened binding; strength is not graded here. For some assays here: Where a sequence is shown, tags or fusion partners need not be part of it.

The chains behind the UniProt entries cited, without tags or fusion partners.
UniProt Q96AC1: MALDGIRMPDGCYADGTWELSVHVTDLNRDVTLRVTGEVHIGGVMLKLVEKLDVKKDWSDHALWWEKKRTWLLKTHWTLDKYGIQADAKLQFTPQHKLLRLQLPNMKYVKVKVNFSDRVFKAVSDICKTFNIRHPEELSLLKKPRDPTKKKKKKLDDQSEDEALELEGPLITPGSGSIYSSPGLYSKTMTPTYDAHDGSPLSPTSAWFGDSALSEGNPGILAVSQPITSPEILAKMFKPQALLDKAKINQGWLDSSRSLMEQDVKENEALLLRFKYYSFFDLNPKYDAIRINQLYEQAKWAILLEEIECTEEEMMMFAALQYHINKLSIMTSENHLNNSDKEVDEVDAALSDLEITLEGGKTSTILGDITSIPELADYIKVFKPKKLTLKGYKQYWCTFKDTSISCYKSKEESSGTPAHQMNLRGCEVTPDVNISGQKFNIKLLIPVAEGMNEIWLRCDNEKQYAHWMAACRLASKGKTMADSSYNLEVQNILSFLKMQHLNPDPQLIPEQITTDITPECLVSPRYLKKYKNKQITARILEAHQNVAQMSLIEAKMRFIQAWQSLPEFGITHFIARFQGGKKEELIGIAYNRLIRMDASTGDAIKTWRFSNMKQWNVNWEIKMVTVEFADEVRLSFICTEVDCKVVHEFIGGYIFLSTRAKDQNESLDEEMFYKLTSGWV

Legend:
[1] = molecular target: T1, endogenous IKKε (human (endogenous in HCT116)) (UniProt Q14164); experiment: co-IP; endogenous proteins; IKKε immunoprecipitated from HCT116 lysates (NP-40 buffer, 4 °C overnight, protein A/G agarose) with anti-IKKε antibody or control IgG, then immunoblotted
T1 sequence: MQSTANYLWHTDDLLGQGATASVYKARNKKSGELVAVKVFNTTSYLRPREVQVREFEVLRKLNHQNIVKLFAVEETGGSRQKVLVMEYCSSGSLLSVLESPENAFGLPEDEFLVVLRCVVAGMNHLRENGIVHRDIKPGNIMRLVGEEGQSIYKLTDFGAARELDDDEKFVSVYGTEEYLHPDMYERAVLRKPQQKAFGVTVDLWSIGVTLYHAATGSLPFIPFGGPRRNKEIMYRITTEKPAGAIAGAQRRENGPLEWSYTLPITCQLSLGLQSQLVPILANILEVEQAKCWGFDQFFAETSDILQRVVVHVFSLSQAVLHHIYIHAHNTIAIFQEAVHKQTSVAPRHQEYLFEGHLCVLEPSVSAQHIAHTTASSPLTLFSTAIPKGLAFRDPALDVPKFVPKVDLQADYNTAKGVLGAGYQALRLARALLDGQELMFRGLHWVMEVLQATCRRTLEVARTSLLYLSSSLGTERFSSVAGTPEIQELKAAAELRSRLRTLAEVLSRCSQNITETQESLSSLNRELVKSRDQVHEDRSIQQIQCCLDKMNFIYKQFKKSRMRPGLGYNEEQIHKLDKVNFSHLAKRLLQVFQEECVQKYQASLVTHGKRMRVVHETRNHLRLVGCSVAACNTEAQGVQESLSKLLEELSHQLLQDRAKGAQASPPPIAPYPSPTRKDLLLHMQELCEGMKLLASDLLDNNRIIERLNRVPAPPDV

FLAG-tagged kindlin-2 = FLAG-tagged kindlin-2 (UniProt Q96AC1); experiment: co-IP; HCT116 cells co-transfected with FLAG-tagged kindlin-2 and GFP-tagged IKKε for 48 h; total lysates (NP-40 buffer: 20 mM Tris-HCl pH 8.0, 137 mM NaCl, 1% NP-40, 10% glycerol, 2 mM EDTA) immunoprecipitated with FLAG-conjugated M2 beads, then immunoblotted

Q: With “endogenous kindlin-2 (from UniProt Q96AC1 1-680)” as the molecule, how does the binding [1] read?
A: binds

B1: GFP-tagged IKKε (enzyme, UniProt Q14164 1-716)
chain: MQSTANYLWHTDDLLGQGATASVYKARNKKSGELVAVKVFNTTSYLRPREVQVREFEVLRKLNHQNIVKLFAVEETGGSRQKVLVMEYCSSGSLLSVLESPENAFGLPEDEFLVVLRCVVAGMNHLRENGIVHRDIKPGNIMRLVGEEGQSIYKLTDFGAARELDDDEKFVSVYGTEEYLHPDMYERAVLRKPQQKAFGVTVDLWSIGVTLYHAATGSLPFIPFGGPRRNKEIMYRITTEKPAGAIAGAQRRENGPLEWSYTLPITCQLSLGLQSQLVPILANILEVEQAKCWGFDQFFAETSDILQRVVVHVFSLSQAVLHHIYIHAHNTIAIFQEAVHKQTSVAPRHQEYLFEGHLCVLEPSVSAQHIAHTTASSPLTLFSTAIPKGLAFRDPALDVPKFVPKVDLQADYNTAKGVLGAGYQALRLARALLDGQELMFRGLHWVMEVLQATCRRTLEVARTSLLYLSSSLGTERFSSVAGTPEIQELKAAAELRSRLRTLAEVLSRCSQNITETQESLSSLNRELVKSRDQVHEDRSIQQIQCCLDKMNFIYKQFKKSRMRPGLGYNEEQIHKLDKVNFSHLAKRLLQVFQEECVQKYQASLVTHGKRMRVVHETRNHLRLVGCSVAACNTEAQGVQESLSKLLEELSHQLLQDRAKGAQASPPPIAPYPSPTRKDLLLHMQELCEGMKLLASDLLDNNRIIERLNRVPAPPDV
Q: How did the binding (FLAG-tagged kindlin-2) turn out when B1 was run?
A: binds
